This experiment has as its target human FLAG-TAZ^S89A (human) (UniProt Q9GZV5). Description: affinity purification with mass spectrometry; HUVECs infected with AdCtrl (GFP), AdYAP^S127A or AdTAZ^S89A; immunoprecipitation with FLAG M2 beads 16 h after transduction; SDS-PAGE, in-gel trypsin digestion, LC-MS, label-free quantification.

By UniProt entry, the sequences of proteins in these tests, tags left out. Where a name states a change or a piece, a line headed by the entry shows the natural chain unless it says otherwise.
UniProt Q9GZV5: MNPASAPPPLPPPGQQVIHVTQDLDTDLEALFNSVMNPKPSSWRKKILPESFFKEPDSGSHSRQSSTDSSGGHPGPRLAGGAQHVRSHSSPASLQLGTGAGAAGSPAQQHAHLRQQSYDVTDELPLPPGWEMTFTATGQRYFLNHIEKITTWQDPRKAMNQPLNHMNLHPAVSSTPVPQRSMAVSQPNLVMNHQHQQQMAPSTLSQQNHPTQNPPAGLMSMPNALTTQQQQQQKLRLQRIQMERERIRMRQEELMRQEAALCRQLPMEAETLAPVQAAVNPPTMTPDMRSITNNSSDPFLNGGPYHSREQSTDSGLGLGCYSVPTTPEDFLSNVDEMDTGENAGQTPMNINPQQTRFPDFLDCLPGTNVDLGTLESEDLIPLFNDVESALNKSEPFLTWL
UniProt Q15562: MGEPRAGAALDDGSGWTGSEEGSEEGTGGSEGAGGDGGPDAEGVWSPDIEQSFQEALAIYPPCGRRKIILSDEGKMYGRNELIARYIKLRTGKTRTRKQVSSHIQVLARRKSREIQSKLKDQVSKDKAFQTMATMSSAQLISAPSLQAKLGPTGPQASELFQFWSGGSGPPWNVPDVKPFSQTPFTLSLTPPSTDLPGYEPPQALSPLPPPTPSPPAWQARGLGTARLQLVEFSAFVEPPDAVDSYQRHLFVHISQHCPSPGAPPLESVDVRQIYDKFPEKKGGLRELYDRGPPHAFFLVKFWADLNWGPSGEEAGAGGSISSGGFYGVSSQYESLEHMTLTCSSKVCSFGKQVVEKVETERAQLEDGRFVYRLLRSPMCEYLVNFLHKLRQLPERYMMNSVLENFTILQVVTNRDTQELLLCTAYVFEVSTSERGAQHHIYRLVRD

These are yes or no findings as the source states them, for the method shown. In cells and extracts the contact can be indirect. These calls come from enrichment with a bait or labelling near it, and not all partners need be listed.

In the case of TEAD2 (from UniProt Q15562 1-447), the binding entry is reported as “binds”.

These data come from publication PMC9236904.
